In patent publication US20150225369A1, “DDR2 INHIBITORS FOR THE TREATMENT OF OSTEOARTHRITIS” (Merck Patent GmbH, priority 2012, published 2015):
pIC50: −log10 of the molar value. The match of structure and compound is tentative.

Sequences of proteins named here, by UniProt entry; tags and fusion partners are left off. Residues count along the entry.
UniProt Q16832, 467-855 limits assumed: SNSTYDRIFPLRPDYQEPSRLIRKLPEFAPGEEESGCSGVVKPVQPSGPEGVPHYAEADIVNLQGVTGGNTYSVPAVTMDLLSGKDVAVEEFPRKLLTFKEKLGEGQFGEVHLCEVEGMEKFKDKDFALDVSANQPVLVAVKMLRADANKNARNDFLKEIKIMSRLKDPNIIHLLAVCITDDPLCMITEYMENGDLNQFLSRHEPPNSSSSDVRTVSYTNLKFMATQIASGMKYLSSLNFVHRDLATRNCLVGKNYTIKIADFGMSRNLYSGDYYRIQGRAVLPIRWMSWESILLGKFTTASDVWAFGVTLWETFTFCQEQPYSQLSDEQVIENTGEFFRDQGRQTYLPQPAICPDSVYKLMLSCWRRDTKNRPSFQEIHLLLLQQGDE
UniProt Q16832, 22-855 limits assumed: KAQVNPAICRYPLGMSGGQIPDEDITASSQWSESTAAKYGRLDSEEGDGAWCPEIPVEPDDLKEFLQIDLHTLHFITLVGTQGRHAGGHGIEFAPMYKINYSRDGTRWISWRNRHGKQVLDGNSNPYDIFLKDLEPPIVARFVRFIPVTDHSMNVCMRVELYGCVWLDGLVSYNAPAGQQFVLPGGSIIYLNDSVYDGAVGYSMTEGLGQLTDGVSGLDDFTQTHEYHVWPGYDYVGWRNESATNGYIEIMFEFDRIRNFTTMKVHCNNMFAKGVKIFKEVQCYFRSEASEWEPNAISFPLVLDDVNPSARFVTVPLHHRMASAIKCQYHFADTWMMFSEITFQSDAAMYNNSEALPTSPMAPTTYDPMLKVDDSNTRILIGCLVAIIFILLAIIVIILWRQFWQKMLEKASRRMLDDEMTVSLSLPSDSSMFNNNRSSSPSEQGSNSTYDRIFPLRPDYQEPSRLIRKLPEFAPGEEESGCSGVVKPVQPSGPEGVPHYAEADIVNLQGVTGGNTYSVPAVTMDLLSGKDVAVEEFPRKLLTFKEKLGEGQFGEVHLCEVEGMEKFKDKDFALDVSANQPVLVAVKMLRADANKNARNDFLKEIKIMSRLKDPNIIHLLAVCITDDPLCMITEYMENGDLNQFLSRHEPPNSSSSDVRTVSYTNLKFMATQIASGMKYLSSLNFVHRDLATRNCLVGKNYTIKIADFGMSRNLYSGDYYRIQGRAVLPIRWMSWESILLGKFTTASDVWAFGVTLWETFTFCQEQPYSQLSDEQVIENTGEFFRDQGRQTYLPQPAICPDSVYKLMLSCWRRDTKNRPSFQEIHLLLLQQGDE

target: His-tagged human recombinant DDR-2 kinase domain (His-TEV-DDR2 467-855 aa) (Homo sapiens, UniProt Q16832); test: Autophosphorylation assay for biochemical activity testing of DDR2 (HTRF); conditions: read-out: IC50 [DDR2]

SMILES	pIC50
CNCCOc1ccc(S(=O)(=O)C(F)(F)F)cc1NC(=O)NCc1ccc(Oc2ccnc(C(=O)NC)c2)cc1	6.15
CNC(=O)c1cc(Oc2ccc(CNC(=O)Nc3cc(C(F)(F)F)ccc3OCCNC(C)=O)cc2)ccn1	6.85
CNC(=O)c1cc(Oc2ccc(CNC(=O)Nc3cc(C(F)(F)F)c(Cl)cc3OCCNC(C)=O)cc2)ccn1	7.21
CNC(=O)c1cc(Oc2ccc(CNC(=O)Nc3cc(C)c(Cl)cc3OCCNC(C)=O)cc2)ccn1	6.52

target: HEK293 transfected with human DDR2 (Homo sapiens, UniProt Q16832); test: Phospho-DDR2 cellular assay (collagen II induced DDR2 phosphorylation, ELISA); type: cell-based; conditions: read-out: IC50 [p-DDR2]
Procedure: Assays were performed in a 384 well plate format, using cell line HEK293 transfected with human DDR2 (PLT460F_(DDR2)-P7-1)
Cells were seeded at a density of 10'000 cells/well in 384well poly-D-lysine coated Black/clear plate (Cellcoat Greiner) and incubated in DMEM medium in the presence of 10% fetal bovine serum at 37° C., 5% CO2 for 48 h. Medium was replaced by serum-free medium and cells were incubated at 37° C., 5% CO2 for 8 h. Compound to be tested in 5% DMSO or 5% DMSO and 50 μg/ml of chicken collagen II were added and cells were incubated at 37° C., 5% CO2 for 16 h
Cells were rinsed with ice-cold PBS, lysed with lysis buffer (M-PER Thermo #78501) for 30 min at room temperature and centrifuged for 1 min at 1000 RPM. In parallel, White High binding 384 well plates (Corning) were coated with mouse anti-human DDR2 capture antibody (R&D Systems kit DuoSet IC Human phospho-DDR2 ELISA), overnight at RT.
An aliquot of cell lysate was transferred to the coated plates and incubated for 2 h at RT. Plates were washed and mouse anti-phospho-tyrosine detection antibody (R&D Systems kit DuoSet IC Human phospho-DDR2 ELISA) conjugated to horse radish peroxidase (HRP) was added for 2 h at RT. Plates were washed and chemiluminescent substrate for HRP (Thermo) was added for 15 min at RT. Luminescence was measured on a luminometer.

SMILES	pIC50
CNCCOc1ccc(S(=O)(=O)C(F)(F)F)cc1NC(=O)NCc1ccc(Oc2ccnc(C(=O)NC)c2)cc1	6.49
CNC(=O)c1cc(Oc2ccc(CNC(=O)Nc3ccccc3CCO)cc2C)ccn1	4.82
